Compound in the test: Cc1cc(ccc1-c1ccccc1)C(=O)N1CCCN(CC1)C(=O)CCl [compound 10]
Briefly: probe-labelled cysteine peptide fold change vs DMSO (competition) (log2 fold change); higher = less target engagement (more negative = stronger competition). The conditions noted are these: THP-1, incubation time: 4 h.

The other results are listed elsewhere or left out.
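Further: competitive profiling in live THP-1 cells: cysteine peptides tagged with an iodoacetamide desthiobiotin (IA-DTB) probe, intensity after compound treatment relative to DMSO-treated cells.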

On to “HEATR5B_Q9P2D3_718_SLCHYDDSVLLGSWLQETDHK (UniProt Q9P2D3)”, for which the “probe-labelled cysteine peptide fold change” value reads like this: (10 µM) 0.0138; (50 µM) -0.00101.
In the same order, the values of “HK2_P52789_133_GSGTQLFDHIAECLANFMDK (UniProt P52789)” are 0.194 and 0.635.
In the same order, the values of “HK1_P19367_158_LPVGFTFSFPCQQSK (UniProt P19367)” are -0.0518 and -0.0955.
In the same order, the values of “HK2_P52789_438_LVPGCDVR (UniProt P52789)” are -0.0685 and 0.204.
Consider “HINT1_P49773_38_CLAFHDISPQAPTHFLVIPK (UniProt P49773)”, for which the “probe-labelled cysteine peptide fold change” value (10 µM) turned out to be 0.0727 and the “probe-labelled cysteine peptide fold change” value (50 µM) came to 0.0613.
Regarding “HCFC1_P51610_1139_RACAAGTPAVIR (UniProt P51610)”, the “probe-labelled cysteine peptide fold change” value (10 µM) was -0.127 and the “probe-labelled cysteine peptide fold change” value (50 µM) is -0.502.
On the same counts, the results for “HK1_P19367_834_RAAQLCGAGMAAVVDK (UniProt P19367)” are 0.0405 and -0.415.
In the same order, the values of “HERC2_O95714_664_CGSQFSIALTK (UniProt O95714)” are 0.0498 and 0.00801.
On the same counts, the results for “HECTD4_Q9Y4D8_2097_VYFTYCGQR (UniProt Q9Y4D8)” are 0.0658 and 0.211.
In the case of “HGH1_Q9BTY7_368_GMENLLEVQVPEDVEQQLQQLDCR (UniProt Q9BTY7)”, the “probe-labelled cysteine peptide fold change” value reads like this: (10 µM) -0.0213; (50 µM) -0.302.
On to “HEATR3_Q7Z4Q2_173_NSIENIANETVNVLWNICECSSR (UniProt Q7Z4Q2)”, for which the “probe-labelled cysteine peptide fold change” value by setting is: (10 µM) 0.145; (50 µM) -0.174.
On the same counts, the results for “HELZ_P42694_101_AVLCCMQLK (UniProt P42694)” are -0.198 and -1.11.
In the same order, the values of “HDLBP_Q00341_683_SIMEECGGVHIHFPVEGSGSDTVVIR (UniProt Q00341)” are 0.111 and 0.13.
Turning to “HK2_P52789_158_KLPLGFTFSFPCHQTK (UniProt P52789)”, the “probe-labelled cysteine peptide fold change” value is 0.056 (10 µM) and -0.0579 (50 µM).
On the same counts, the results for “HELB_Q8NG08_379_KPPWHLCVDVEK (UniProt Q8NG08)” are -0.038 and -0.303.
In the same order, the values of “HLTF_Q14527_896_VESIQCFQNTEAGSPTIMLLSLK (UniProt Q14527)” are -0.0932 and 0.112.
On the same counts, the results for “HECTD1_Q9ULT8_146_ESGAVFEAGGLNCVLTFIR (UniProt Q9ULT8)” are 0.0977 and 0.359.
On to “HMGXB4_Q9UGU5_418_NMSAYQVFCK (UniProt Q9UGU5)”, for which the “probe-labelled cysteine peptide fold change” value reads like this: (10 µM) 0.05; (50 µM) 0.304.
“HMGCL_P35914_307_LLEAGNFICQALNR (UniProt P35914)”: the “probe-labelled cysteine peptide fold change” value is, setting by setting: (10 µM) -0.0228; (50 µM) 0.406.
For “HEATR5B_Q9P2D3_471_CVAVALPFQLTPFLDR (UniProt Q9P2D3)”, the “probe-labelled cysteine peptide fold change” value was -0.074 (10 µM) and 0.189 (50 µM).
In the same order, the values of “HDHD3_Q9BSH5_109_DFSHPCTWQVLDGAEDTLR (UniProt Q9BSH5)” are -0.47 and -1.92.
For the target “HDAC4_P56524_777_LAVGCVVELVFK (UniProt P56524)”, the “probe-labelled cysteine peptide fold change” value came out at 0.157 (10 µM) and 0.082 (50 µM).
For “HK1_P19367_256_MCINTEWGAFGDDGSLEDIRTEFDREIDRGSLNPGK (UniProt P19367)”, the “probe-labelled cysteine peptide fold change” value runs as follows: (10 µM) 0.000785; (50 µM) -0.138.
On the same counts, the results for “HK1_P19367_628_ATDCVGHDVVTLLR (UniProt P19367)” are -0.00485 and 0.136.
